The record followed here is US6949506B2 (BAS Medical, Inc., priority 1995, dated 2005).

The nature of data set [1]: general procedure: hybrid (solid and solution phase) peptide synthesis; p-benzyloxybenzyl resin. To be noted: whole synthesis, scale 0.25 mmol.
Data set [2] is described as follows: general procedure: hybrid (solid and solution phase) peptide synthesis; [4-(oxymethylphenylacetamidomethyl]resin (B chain); p-benzyloxybenzyl resin (A chain).

In data set [1], “A chain(acetamidomethylA10, 4-methylbenzylA24)” had a crude mass of 372.3 mg. The isolated mass in data set [2] (whole synthesis, overall, scale 0.25 mmol) worked out at 166.5 mg.
Regarding “Relaxin-like factor (alpha AAATNPARYCCLSGCTQQDLLTLCPY; beta PTPEMREKLCGHHFVRALVRVCGGPRWSTEA; three disulfide links; H. sapiens)”, the oxidative folding yield in data set [2] (oxidative folding step) was 36.8%. Also, the isolated yield in data set [2] (whole synthesis, overall, scale of the general procedure 0.4 mmol (B chain), 0.25 mmol (A chain)) was 14.9%.
